Results reported in PubChem BioAssay AID1487 (National Center for Advancing Translational Sciences (NCATS), 2009).
Some of the results follow. These are further read-outs of the screen, such as a control signal, another cell line or another target. No call is given for them. Most of these compounds were active or inconclusive in the main read-out, so they are no random draw. The note in brackets gives the kind of curve behind each potency; many fits are weak.

Assay: qHTS Assay for Modulators of Lamin A Splicing
Settings: HeLa LMNA splicing GFP/RFP minigene ratio, 48 h
In short: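 S3 HeLa stable clones carrying a lamin A-EGFP splicing minigene plus DsRed2 were seeded at 600 cells/well in Opti-MEM with 2% FBS, pin-dosed and incubated 48 h at 37°C. Acumen cytometry (488 nm) gave the GFP/RFP total-intensity ratio.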

[1] = measured here: RFP viability control channel
[2] = measured here: GFP splicing reporter channel

| Structure (SMILES) | AC50 [1] | AC50 [2] |
| --- | --- | --- |
| Cc1ccc(-c2cc(C(=O)N3CCN(c4ccccc4)CC3)c3ccccc3n2)cc1C | 14.1 µM [rising, single point] |  |
| Cc1ccc(CN2CCN(Cc3cnn(-c4ccc(Cl)cc4)c3)CC2CCO)o1 (stereo unspecified) | 35.5 µM [falling, partial curve, poor fit] | 4.47 µM [falling, partial curve, poor fit] |
| Cc1c(C(c2ccccc2O)c2c(C)n(C)n(-c3ccccc3)c2=O)c(=O)n(-c2ccccc2)n1C | 0.00891 µM [falling, full curve, poor fit] |  |
| CCCC(=O)OCCNc1cc(Sc2nc3ccccc3[nH]2)c2nonc2c1[N+](=O)[O-] | 35.5 µM [rising, single point] |  |
| COc1ccc(C(=O)Nc2ccccc2C(=O)NC(Cc2c[nH]c3ccccc23)C(=O)O)cc1 (stereo unspecified) | 0.0447 µM [falling, full curve, poor fit] |  |
| O=C(/C(=C/O)N=Nc1ccccc1)c1ccncc1 | 14.1 µM [rising, single point] |  |
| Cc1nc(C(=O)Nc2cccc(Cl)c2)nn1-c1cc(OC(C)C)c(Cl)cc1Cl | 12.6 µM [rising, partial curve] |  |
| CN1CCN(S(=O)(=O)c2cnccc2N2CCN(c3cccc(Cl)c3)CC2)CC1 | 35.5 µM [rising, single point] | 14.1 µM [rising, partial curve] |
| COc1ccc(-c2csc(N(CC3CCCO3)C(=O)c3ccc(C)cc3)n2)cc1 (stereo unspecified) | 28.2 µM [rising, single point] |  |
| O=C(Nc1ccncc1)c1ccc2c(c1)S(=O)(=O)c1ccccc1C2=O | 17.8 µM [rising, single point] |  |
| O=C(Cn1cnc2c(cnn2-c2ccc(F)cc2)c1=O)N1CCCc2ccccc21 | 11.2 µM [rising, single point] |  |
| Cc1ccc(N2C(=O)CC(Sc3ccccc3C(=O)O)C2=O)cc1C (stereo unspecified) |  | 0.398 µM [falling, full curve, poor fit] |
| Cc1ccc(-c2csc3n[nH]c(=S)n23)cc1 | 12.6 µM [falling, partial curve] | 8.91 µM [falling, partial curve] |
| COc1ccccc1/C=C/C(=O)Nc1ccc2c(c1)CCC2 | 8.91 µM [rising, partial curve, poor fit] |  |
| COc1cc(/C=N/NC(=O)c2ccc(Cl)c(S(N)(=O)=O)c2)ccc1OCC(N)=O | 0.708 µM [falling, full curve, poor fit] |  |
| CCCCOC(=O)Oc1ccc2c(=O)c(Oc3cccc(C)c3)coc2c1 | 0.0112 µM [falling, full curve, poor fit] |  |
| Cc1ccc2nc(SCC(=O)Nc3cccc(S(=O)(=O)N(C)C)c3)[nH]c2c1 | 12.6 µM [rising, partial curve] | 11.2 µM [rising, partial curve, poor fit] |
| O=C(c1ccco1)N1CCN(C(c2ccccc2Cl)c2nnnn2Cc2cccs2)CC1 (stereo unspecified) |  | 20 µM [falling, partial curve, poor fit] |

Single entries from the entries so far:
`COc1ccccc1/C=C/C(=O)Nc1ccc2c(c1)CCC2` – AC50 [1]: 8.91 µM [rising, partial curve, poor fit]
`CN1CCN(S(=O)(=O)c2cnccc2N2CCN(c3cccc(Cl)c3)CC2)CC1` – AC50 [2]: 14.1 µM [rising, partial curve]

(more compounds)

| Structure (SMILES) | AC50 [1] | AC50 [2] |
| --- | --- | --- |
| Clc1ccc(-c2csc(Nc3ccccc3)[n+]2Cc2ccco2)c(Cl)c1 | 7.08 µM [rising, partial curve] |  |
| COc1ccc(C(=O)NCc2ccc3c(c2)OCO3)cc1S(=O)(=O)N(C)Cc1ccccc1 | 11.2 µM [rising, partial curve, poor fit] |  |
| COc1ccccc1-c1cc(NC(=O)COc2ccc(C)c(C)c2)n(-c2ccccc2)n1 | 10 µM [falling, partial curve, poor fit] | 0.316 µM [rising, single point] |
| COc1ccccc1NC(=O)C1CCN(S(=O)(=O)c2cn(C)cn2)CC1 | 1.26 µM [falling, partial curve] | 1.41 µM [falling, partial curve] |
| COc1ccc(NC(=O)c2c(NCc3cccc(F)c3)sc3c2CCCC3)c(OC)c1 | 22.4 µM [rising, single point] | 35.5 µM [falling, single point] |
| O=C(NCc1ccccc1)C1CCN(S(=O)(=O)c2ccc3[nH]c(=O)ccc3c2)CC1 | 0.0891 µM [falling, full curve, poor fit] |  |
| Cc1cccc(N(C)S(=O)(=O)c2c(C(=O)N3CCCCCC3)c(C)n(C)c2C)c1 | 0.00316 µM [falling, full curve, poor fit] |  |
| COc1cc(OC)cc(C(=O)NCC(=O)OCC(=O)Nc2ccc3c(c2)OCO3)c1 | 12.6 µM [rising, partial curve, poor fit] |  |
| N/C(=N\OC(=O)Cc1ccc(-c2ccccc2)cc1)c1ccccn1 | 14.1 µM [rising, single point] | 35.5 µM [rising, single point] |
| Cc1nc(Oc2ccccc2)c2ccccc2n1 | 22.4 µM [rising, single point] |  |
| Cc1cc(N2CCN(S(=O)(=O)c3ccc4c(c3)OCCO4)CC2)n2ncnc2n1 | 22.4 µM [rising, single point] | 22.4 µM [rising, partial curve, poor fit] |
| O=c1c(-c2cccc(Cl)c2)nc2cncnc2n1Cc1ccccc1 |  | 0.501 µM [falling, full curve, poor fit] |
| Cc1cnc(C(=O)Nc2ccc(S(=O)(=O)NCC(C)C)cc2)cn1 | 0.00501 µM [falling, full curve, poor fit] |  |
| Cc1ccccc1-c1nnc(SCc2ccccc2F)o1 |  | 11.2 µM [rising, partial curve, poor fit] |
| O=C(c1noc2c1CCCC2)N1CCN(Cc2ccccc2)CC1 | 11.2 µM [rising, single point] |  |
| COc1cc(N2CCCC2)ccc1[N+](=O)[O-] | 0.0316 µM [falling, full curve, poor fit] | 0.0794 µM [falling, full curve, poor fit] |
| CN1CCN(c2cc(N3CCc4ccccc4C3)c(F)cc2[N+](=O)[O-])CC1 | 12.6 µM [rising, partial curve] | 12.6 µM [rising, single point] |
